{"source": "paper PMC6805918", "about": "“Extracellular pyridine nucleotides trigger plant systemic immunity through a lectin receptor kinase/BAK1 complex” (Nature Communications, 2019)", "binders": {"B1": {"name": "BAK1-GFP (transiently expressed in N. benthamiana) (receptor, UniProt Q94F62 26-615)", "chain": "NAEGDALSALKNSLADPNKVLQSWDATLVTPCTWFHVTCNSDNSVTRVDLGNANLSGQLVMQLGQLPNLQYLELYSNNITGTIPEQLGNLTELVSLDLYLNNLSGPIPSTLGRLKKLRFLRLNNNSLSGEIPRSLTAVLTLQVLDLSNNPLTGDIPVNGSFSLFTPISFANTKLTPLPASPPPPISPTPPSPAGSNRITGAIAGGVAAGAALLFAVPAIALAWWRRKKPQDHFFDVPAEEDPEVHLGQLKRFSLRELQVASDNFSNKNILGRGGFGKVYKGRLADGTLVAVKRLKEERTQGGELQFQTEVEMISMAVHRNLLRLRGFCMTPTERLLVYPYMANGSVASCLRERPESQPPLDWPKRQRIALGSARGLAYLHDHCDPKIIHRDVKAANILLDEEFEAVVGDFGLAKLMDYKDTHVTTAVRGTIGHIAPEYLSTGKSSEKTDVFGYGVMLLELITGQRAFDLARLANDDDVMLLDWVKGLLKEKKLEALVDVDLQGNYKDEEVEQLIQVALLCTQSSPMERPKMSEVVRMLEGDGLAERWEEWQKEEMFRQDFNYPTHHPAVSGWIIGDSTSQIENEYPSGPR"}}, "molecular_target": "T1, LecRK-VI.2-FLAG (Arabidopsis thaliana) (UniProt Q9M021)", "T1 sequence": "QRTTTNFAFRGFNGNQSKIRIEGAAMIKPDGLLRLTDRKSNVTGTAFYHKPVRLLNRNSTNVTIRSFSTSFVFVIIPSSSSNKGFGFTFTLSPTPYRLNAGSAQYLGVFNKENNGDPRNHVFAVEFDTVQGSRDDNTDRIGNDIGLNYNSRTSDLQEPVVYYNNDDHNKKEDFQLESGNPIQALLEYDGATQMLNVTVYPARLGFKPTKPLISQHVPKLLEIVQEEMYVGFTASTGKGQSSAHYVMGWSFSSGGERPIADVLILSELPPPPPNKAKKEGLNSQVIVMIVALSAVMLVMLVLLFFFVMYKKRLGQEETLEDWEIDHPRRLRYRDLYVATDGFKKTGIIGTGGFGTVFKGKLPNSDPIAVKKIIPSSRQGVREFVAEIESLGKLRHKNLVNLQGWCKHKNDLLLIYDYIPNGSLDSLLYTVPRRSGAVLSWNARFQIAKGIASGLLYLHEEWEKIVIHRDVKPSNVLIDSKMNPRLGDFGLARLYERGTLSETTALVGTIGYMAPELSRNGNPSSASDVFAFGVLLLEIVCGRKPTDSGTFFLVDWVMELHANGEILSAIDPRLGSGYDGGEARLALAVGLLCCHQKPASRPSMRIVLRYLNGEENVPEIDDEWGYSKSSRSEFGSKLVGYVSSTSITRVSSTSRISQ", "experiment": "co-IP; N. benthamiana leaves transiently co-expressing the proteins, with or without 0.8 mM NADP+ for 10 min; total protein extract precipitated with anti-FLAG M2 affinity agarose, 4 °C, 4 hr; immunoblot with anti-FLAG and anti-GFP", "note": "These are yes or no findings as the source states them, for the method shown. Binding seen in cells or lysates may run through a third protein. Some results given as binding are weak or reduced against the parent protein; the word gives no strength. Where a sequence is shown, tags or fusion partners need not be part of it.", "data": [{"binder": "B1", "values": [{"measurement": "binding", "result": "binds"}]}]}
